This is an account of results in article PMC2679207, “GLS-1, a Novel P Granule Component, Modulates a Network of Conserved RNA Regulators to Influence Germ Cell Fate Decisions” (PLoS Genetics, 2009).

Results are given in words; binding and its absence hold for the method and conditions named. Binding seen in cells or lysates may run through a third protein. Some results given as binding are weak or reduced against the parent protein; the word gives no strength.

Assay [1] addresses T1, GLD-3 (endogenous, worm extract) (C. elegans (endogenous in wild-type worms)) (UniProt Q95ZK7).
T1 sequence: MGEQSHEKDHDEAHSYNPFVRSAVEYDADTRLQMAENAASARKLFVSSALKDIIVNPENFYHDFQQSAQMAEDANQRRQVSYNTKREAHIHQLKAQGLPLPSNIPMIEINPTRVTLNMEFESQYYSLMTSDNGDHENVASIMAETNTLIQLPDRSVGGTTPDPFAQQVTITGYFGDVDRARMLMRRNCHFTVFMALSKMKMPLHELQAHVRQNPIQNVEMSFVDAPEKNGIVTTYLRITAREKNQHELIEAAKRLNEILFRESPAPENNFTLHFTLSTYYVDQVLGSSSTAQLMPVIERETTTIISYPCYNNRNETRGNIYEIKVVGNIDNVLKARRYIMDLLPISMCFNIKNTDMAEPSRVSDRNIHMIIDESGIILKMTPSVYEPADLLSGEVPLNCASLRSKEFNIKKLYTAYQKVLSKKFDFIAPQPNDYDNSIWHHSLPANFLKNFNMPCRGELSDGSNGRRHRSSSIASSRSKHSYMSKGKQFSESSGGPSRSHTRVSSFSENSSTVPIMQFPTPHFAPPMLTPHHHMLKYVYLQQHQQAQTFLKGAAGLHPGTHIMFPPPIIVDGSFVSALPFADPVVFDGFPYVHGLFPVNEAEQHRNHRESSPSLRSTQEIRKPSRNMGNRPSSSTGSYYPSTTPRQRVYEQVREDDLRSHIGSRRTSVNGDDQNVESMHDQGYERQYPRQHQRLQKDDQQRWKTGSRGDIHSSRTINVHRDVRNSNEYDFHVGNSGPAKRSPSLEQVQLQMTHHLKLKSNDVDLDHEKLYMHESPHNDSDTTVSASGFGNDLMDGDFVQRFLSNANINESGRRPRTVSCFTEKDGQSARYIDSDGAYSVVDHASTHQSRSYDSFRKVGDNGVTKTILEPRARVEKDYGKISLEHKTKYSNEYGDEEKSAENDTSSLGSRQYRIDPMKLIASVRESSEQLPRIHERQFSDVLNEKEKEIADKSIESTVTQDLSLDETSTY
In words: co-IP; wild-type whole worm extracts; anti-GLS-1 or anti-GLD-3L immune sera coupled to agarose beads, pre-immune serum as control; with or without RNase A; detected with the reciprocal antibodies.

The target of assay [2] is T2, GLS-1 (endogenous, worm extract) (C. elegans (endogenous in wild-type worms)) (UniProt Q8I4M5).
T2 sequence: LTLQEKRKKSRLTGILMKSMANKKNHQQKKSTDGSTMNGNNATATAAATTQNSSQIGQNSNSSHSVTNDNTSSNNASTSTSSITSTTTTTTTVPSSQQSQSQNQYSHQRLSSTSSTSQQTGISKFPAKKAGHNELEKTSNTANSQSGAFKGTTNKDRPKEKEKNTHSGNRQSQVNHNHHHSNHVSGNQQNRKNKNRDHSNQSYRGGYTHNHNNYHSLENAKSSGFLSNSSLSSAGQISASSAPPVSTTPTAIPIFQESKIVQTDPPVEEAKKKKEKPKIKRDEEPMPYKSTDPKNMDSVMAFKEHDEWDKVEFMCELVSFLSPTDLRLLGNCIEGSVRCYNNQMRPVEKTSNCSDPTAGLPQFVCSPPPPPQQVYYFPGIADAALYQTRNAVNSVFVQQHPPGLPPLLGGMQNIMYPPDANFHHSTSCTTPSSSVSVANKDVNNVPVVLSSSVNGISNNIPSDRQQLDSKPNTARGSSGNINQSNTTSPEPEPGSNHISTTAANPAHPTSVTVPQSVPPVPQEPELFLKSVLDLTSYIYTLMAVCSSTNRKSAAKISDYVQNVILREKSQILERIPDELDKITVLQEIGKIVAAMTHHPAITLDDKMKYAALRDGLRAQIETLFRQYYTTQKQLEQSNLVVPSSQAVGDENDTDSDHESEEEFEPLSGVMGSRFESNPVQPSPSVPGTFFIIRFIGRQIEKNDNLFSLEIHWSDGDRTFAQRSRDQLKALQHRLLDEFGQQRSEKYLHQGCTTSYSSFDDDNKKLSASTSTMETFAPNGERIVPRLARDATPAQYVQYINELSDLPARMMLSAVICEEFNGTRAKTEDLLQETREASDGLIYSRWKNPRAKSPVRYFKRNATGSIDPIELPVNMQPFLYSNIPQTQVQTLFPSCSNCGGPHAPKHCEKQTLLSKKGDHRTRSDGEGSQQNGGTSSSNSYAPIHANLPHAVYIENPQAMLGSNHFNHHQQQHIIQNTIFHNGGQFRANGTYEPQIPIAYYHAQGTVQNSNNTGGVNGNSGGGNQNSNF
The assay is described as above.

B1: GLS-1 (endogenous, worm extract) (protein, UniProt Q8I4M5 26-1052)
chain: LTLQEKRKKSRLTGILMKSMANKKNHQQKKSTDGSTMNGNNATATAAATTQNSSQIGQNSNSSHSVTNDNTSSNNASTSTSSITSTTTTTTTVPSSQQSQSQNQYSHQRLSSTSSTSQQTGISKFPAKKAGHNELEKTSNTANSQSGAFKGTTNKDRPKEKEKNTHSGNRQSQVNHNHHHSNHVSGNQQNRKNKNRDHSNQSYRGGYTHNHNNYHSLENAKSSGFLSNSSLSSAGQISASSAPPVSTTPTAIPIFQESKIVQTDPPVEEAKKKKEKPKIKRDEEPMPYKSTDPKNMDSVMAFKEHDEWDKVEFMCELVSFLSPTDLRLLGNCIEGSVRCYNNQMRPVEKTSNCSDPTAGLPQFVCSPPPPPQQVYYFPGIADAALYQTRNAVNSVFVQQHPPGLPPLLGGMQNIMYPPDANFHHSTSCTTPSSSVSVANKDVNNVPVVLSSSVNGISNNIPSDRQQLDSKPNTARGSSGNINQSNTTSPEPEPGSNHISTTAANPAHPTSVTVPQSVPPVPQEPELFLKSVLDLTSYIYTLMAVCSSTNRKSAAKISDYVQNVILREKSQILERIPDELDKITVLQEIGKIVAAMTHHPAITLDDKMKYAALRDGLRAQIETLFRQYYTTQKQLEQSNLVVPSSQAVGDENDTDSDHESEEEFEPLSGVMGSRFESNPVQPSPSVPGTFFIIRFIGRQIEKNDNLFSLEIHWSDGDRTFAQRSRDQLKALQHRLLDEFGQQRSEKYLHQGCTTSYSSFDDDNKKLSASTSTMETFAPNGERIVPRLARDATPAQYVQYINELSDLPARMMLSAVICEEFNGTRAKTEDLLQETREASDGLIYSRWKNPRAKSPVRYFKRNATGSIDPIELPVNMQPFLYSNIPQTQVQTLFPSCSNCGGPHAPKHCEKQTLLSKKGDHRTRSDGEGSQQNGGTSSSNSYAPIHANLPHAVYIENPQAMLGSNHFNHHQQQHIIQNTIFHNGGQFRANGTYEPQIPIAYYHAQGTVQNSNNTGGVNGNSGGGNQNSNF
In the case of B1, the binding result in assay [1] is reported as “binds”.

B2: GLD-3 (endogenous, worm extract) (protein, UniProt Q95ZK7-1 1-969)
chain: MGEQSHEKDHDEAHSYNPFVRSAVEYDADTRLQMAENAASARKLFVSSALKDIIVNPENFYHDFQQSAQMAEDANQRRQVSYNTKREAHIHQLKAQGLPLPSNIPMIEINPTRVTLNMEFESQYYSLMTSDNGDHENVASIMAETNTLIQLPDRSVGGTTPDPFAQQVTITGYFGDVDRARMLMRRNCHFTVFMALSKMKMPLHELQAHVRQNPIQNVEMSFVDAPEKNGIVTTYLRITAREKNQHELIEAAKRLNEILFRESPAPENNFTLHFTLSTYYVDQVLGSSSTAQLMPVIERETTTIISYPCYNNRNETRGNIYEIKVVGNIDNVLKARRYIMDLLPISMCFNIKNTDMAEPSRVSDRNIHMIIDESGIILKMTPSVYEPADLLSGEVPLNCASLRSKEFNIKKLYTAYQKVLSKKFDFIAPQPNDYDNSIWHHSLPANFLKNFNMPCRGELSDGSNGRRHRSSSIASSRSKHSYMSKGKQFSESSGGPSRSHTRVSSFSENSSTVPIMQFPTPHFAPPMLTPHHHMLKYVYLQQHQQAQTFLKGAAGLHPGTHIMFPPPIIVDGSFVSALPFADPVVFDGFPYVHGLFPVNEAEQHRNHRESSPSLRSTQEIRKPSRNMGNRPSSSTGSYYPSTTPRQRVYEQVREDDLRSHIGSRRTSVNGDDQNVESMHDQGYERQYPRQHQRLQKDDQQRWKTGSRGDIHSSRTINVHRDVRNSNEYDFHVGNSGPAKRSPSLEQVQLQMTHHLKLKSNDVDLDHEKLYMHESPHNDSDTTVSASGFGNDLMDGDFVQRFLSNANINESGRRPRTVSCFTEKDGQSARYIDSDGAYSVVDHASTHQSRSYDSFRKVGDNGVTKTILEPRARVEKDYGKISLEHKTKYSNEYGDEEKSAENDTSSLGSRQYRIDPMKLIASVRESSEQLPRIHERQFSDVLNEKEKEIADKSIESTVTQDLSLDETSTY
As for B2, in assay [2], the binding entry is listed as “binds”.
